Measured values from article PMC5562876, “The integration of Gβ and MAPK signaling cascade in zygote development” (Scientific Reports, 2017).
Positions count from the first letter of the chain named. Names and notes keep the numbering of the source. No constants are given. Whether binding was seen depends on the method and setting. Binding seen in cells or lysates may run through a third protein. Some results given as binding are weak or reduced against the parent protein; the word gives no strength. Tags and fused reporters may be left off the sequences shown.

Protein sequences, listed by entry. Tags and fused reporters are not part of them.
UniProt Q39026: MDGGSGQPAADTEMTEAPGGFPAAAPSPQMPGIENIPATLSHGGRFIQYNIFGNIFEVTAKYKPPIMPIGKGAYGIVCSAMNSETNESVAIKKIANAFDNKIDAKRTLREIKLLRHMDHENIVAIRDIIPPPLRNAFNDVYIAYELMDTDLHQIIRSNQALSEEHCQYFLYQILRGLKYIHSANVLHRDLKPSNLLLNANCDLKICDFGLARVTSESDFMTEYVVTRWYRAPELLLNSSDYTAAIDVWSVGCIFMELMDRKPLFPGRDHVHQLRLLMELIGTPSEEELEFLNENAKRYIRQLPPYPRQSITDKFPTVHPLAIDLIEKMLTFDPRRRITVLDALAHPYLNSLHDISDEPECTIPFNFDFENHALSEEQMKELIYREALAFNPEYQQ

B1: AGG2 (purified, pull-down) (natural protein, Arabidopsis thaliana, UniProt Q93V47 1-100, looked up)
chain: MEAGSSNSSGQLSGRVVDTRGKHRIQAELKRLEQEARFLEEELEQLEKMDNASASCKEFLDSVDSKPDPLLPETTGPVNATWDQWFEGPKEAKRCGCSIL
notes: AGG2, G protein gamma subunit 2, Arabidopsis thaliana, At3G22942; fusion protein; source: E. coli, purified (glutathione agarose beads)
B2: cLUC-GPA1 (protein, UniProt P18064 1-383)
chain: MGLLCSRSRHHTEDTDENTQAAEIERRIEQEAKAEKHIRKLLLLGAGESGKSTIFKQIKLLFQTGFDEGELKSYVPVIHANVYQTIKLLHDGTKEFAQNETDSAKYMLSSESIAIGEKLSEIGGRLDYPRLTKDIAEGIETLWKDPAIQETCARGNELQVPDCTKYLMENLKRLSDINYIPTKEDVLYARVRTTGVVEIQFSPVGENKKSGEVYRLFDVGGQRNERRKWIHLFEGVTAVIFCAAISEYDQTLFEDEQKNRMMETKELFDWVLKQPCFEKTSFMLFLNKFDIFEKKVLDVPLNVCEWFRDYQPVSSGKQEIEHAYEFVKKKFEELYYQNTAPDRVDRVFKIYRTTALDQKLVKKTFKLVDETLRRRNLLEAGLL
B3: GPA1^Q222L (purified, pull-down) (natural protein, Arabidopsis thaliana, UniProt P18064 1-383, looked up)
chain: B2 chain with Q222L
notes: GPA1, G protein alpha subunit, Arabidopsis thaliana, At2G26300, with Q222L; fusion protein; source: E. coli, purified (glutathione agarose beads)
B4: AGG1 (purified, pull-down) (natural protein, Arabidopsis thaliana, UniProt Q9FDX9 1-98, looked up)
chain: MREETVVYEQEESVSHGGGKHRILAELARVEQEVAFLEKELKEVENTDIVSTVCEELLSVIEKGPDPLLPLTNGPLNLGWDRWFEGPNGGEGCRCLIL
notes: AGG1, G protein gamma subunit 1, Arabidopsis thaliana, At3G63420; fusion protein; source: E. coli, purified (glutathione agarose beads)

Target: T1, MPK3-nLUC (Arabidopsis thaliana) (UniProt Q39023)
T1 sequence: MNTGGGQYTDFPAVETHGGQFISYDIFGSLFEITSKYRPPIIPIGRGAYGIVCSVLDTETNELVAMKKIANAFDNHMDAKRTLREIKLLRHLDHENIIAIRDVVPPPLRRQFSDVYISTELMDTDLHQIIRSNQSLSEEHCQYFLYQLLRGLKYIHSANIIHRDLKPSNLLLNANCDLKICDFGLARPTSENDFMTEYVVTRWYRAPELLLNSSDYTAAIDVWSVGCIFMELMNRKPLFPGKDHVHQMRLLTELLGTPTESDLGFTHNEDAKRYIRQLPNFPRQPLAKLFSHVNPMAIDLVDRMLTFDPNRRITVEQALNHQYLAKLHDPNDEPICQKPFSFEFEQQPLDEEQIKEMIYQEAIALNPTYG
Test: split reporter; firefly luciferase complementation imaging; 35S-driven nLUC and cLUC constructs co-infiltrated by agrobacterium GV3101 into N. benthamiana leaves, 3 days at 22 °C, CCD imaging

Binder | binding
B1 | binds
B2 | binds
B3 | binds
B4 | binds

Target: MPK6-nLUC (Arabidopsis thaliana) (UniProt Q39026)
Test: as above

Binder | binding
B1 | binds
B2 | binds
B3 | binds
B4 | binds
